Publication PMC5668312
Results are given in words; binding and its absence hold for the method and conditions named. Some binding calls cover weakened binding; strength is not graded here.

The chains behind the UniProt entries cited, without tags or fusion partners. Residues count along the entry.
UniProt Q8BG40, residues 481-658: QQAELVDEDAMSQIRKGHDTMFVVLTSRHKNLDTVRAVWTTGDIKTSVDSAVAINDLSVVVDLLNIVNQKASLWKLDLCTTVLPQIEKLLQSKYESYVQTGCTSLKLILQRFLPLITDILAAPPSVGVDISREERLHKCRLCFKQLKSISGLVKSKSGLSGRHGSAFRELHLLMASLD

Molecular target: katanin p80 C-terminal domain (p80-CTD, aa 481-658 of mouse p80), 6xHis-tagged (mouse) (UniProt Q8BG40)
Assay: crystal structure; p60-MIT L40P:p80-CTD complex, 20 mg/ml in 20 mM HEPES pH 7.5, 150 mM NaCl; sitting drops at 20 °C, 27% PEG 3350, 0.1 M BisTris propane (6.0), 0.2 M MgCl2; 2.4 Å, space group C2; both purified

B1: katanin p60 MIT domain L40P mutant (p60-MIT L40P) (domain or fragment, UniProt Q9WV86 1-78)
chain: MSLQMIVENVKLAREYALLGNYDSAMVYYQGVLDQMNKYPYSVKDTHLRQKWQQVWQEINVEAKQVKDIMKTLESFKL
In the case of B1, the binding is reported as “binds”.
